According to article PMC6028546, “Control of mitotic chromosome condensation by the fission yeast transcription factor Zas1”:
These are yes or no findings as the source states them, for the method shown. In cells and extracts the contact can be indirect. Some binding calls cover weakened binding; strength is not graded here. Where a sequence is shown, tags or fusion partners need not be part of it.

T1: Cnd2-PK6 (condensin kleisin subunit Cnd2 with a PK6 tag) (S. pombe) (UniProt Q9Y7R3)
T1 sequence: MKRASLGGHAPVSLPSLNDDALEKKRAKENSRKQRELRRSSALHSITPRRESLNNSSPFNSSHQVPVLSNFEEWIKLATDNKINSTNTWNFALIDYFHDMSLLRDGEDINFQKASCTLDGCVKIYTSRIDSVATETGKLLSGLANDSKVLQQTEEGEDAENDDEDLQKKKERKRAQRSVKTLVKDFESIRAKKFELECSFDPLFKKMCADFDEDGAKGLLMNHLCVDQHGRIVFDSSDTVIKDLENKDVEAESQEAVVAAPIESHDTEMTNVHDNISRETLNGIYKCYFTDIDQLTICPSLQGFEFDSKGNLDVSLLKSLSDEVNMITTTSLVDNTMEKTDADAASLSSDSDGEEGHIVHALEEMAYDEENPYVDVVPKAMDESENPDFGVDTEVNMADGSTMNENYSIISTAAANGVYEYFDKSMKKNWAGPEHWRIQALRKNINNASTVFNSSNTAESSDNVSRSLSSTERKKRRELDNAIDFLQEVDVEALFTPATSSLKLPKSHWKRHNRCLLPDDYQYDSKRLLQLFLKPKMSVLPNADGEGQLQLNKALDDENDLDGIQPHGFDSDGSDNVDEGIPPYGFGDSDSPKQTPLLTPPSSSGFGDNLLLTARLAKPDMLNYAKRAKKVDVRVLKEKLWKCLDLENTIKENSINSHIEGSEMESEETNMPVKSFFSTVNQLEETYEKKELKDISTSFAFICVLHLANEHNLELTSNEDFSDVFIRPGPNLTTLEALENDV

B1: Cnd3 (condensin HEAT-repeat subunit) (protein, UniProt Q10429 1-875)
chain: MSCIQIISSSQTSIAGHRKLCNKLFTLRTQEGFETDILRALNIILTVKKGNSNADRVLRFLVTFVNYLQQKDPEIDIVQPILKHILRGLDAKDKTVRYRCCQIIARVVNCVKEIDDDLYNTLKEKLLSRVLDRESIVRLEAVVALSRLQEDTGDEENDVRNILLFLLQNDPSSEVRRSVLLNIEVSNSTLPFILERARDVDAANRKCVYARVLPKIGDFRYLSIKKRVRILKWGLNDRDESVEKAAADMLAYQWIENADNNLLELLERLDVSNNSDVAVLAIKKFFDVRVDSLSQLEFPEQFWLELTAESSLLARTFNEICIEKNYTDLLDKMPEVVQLTYYIERQYVSLRDKSSYDESCFIIEQLLYIGLSQDMVDEIGRRKLLKSLTNSLSTMALPDSLISLHIELLRKLCSSENDFCSLLVEIITEVFEQGHSQNQTEEQGNSNAPELNKNDYEGEEITVSQKSPSPSLPPNELNEPEPDDMDGYKEAFNELRCLSYVQCLFENITSSLNENLYMVDMLKTLIIPAVRSHDLPIREKGLECLSLVCLLNADLAFENVPLYLHCYEKGSVVLKCTAIRTLTDMLIQHGKAKFTEYEDAISSILFEALGEFENAELQTLGAEAIAKLLVILHYRDELFLKPLIIQYFEPNTVDNHALRQVLGYFFPVYAFGAHENQWRIATIFCDALLSLLEIYRDLDEDDVQLSIGHIAQQMLDWTDNEKLYERKTQTGDDYIALNHNVHLHLANMIFESLPNASEGKERKFMISLLGKLKIPTDLPSSDYQRTKRKLETYESHGFTMDSTSLSILAKFERMLLQNEEARSKFEETEEERLMENAEENEHAGAEAISGEIIPDTVEANMEDEEEVYVKQEEDL
B2: Cut3 (condensin subunit) (protein, UniProt P41004 1-1324)
chain: MSDKGIFRTSSTPSIVDVTPDRGERPRKLVRSVLESPSQKDVASIVKIEQTPSRPFFNDFLKKRITDSLNERPNLLNKFMSAQDGTPSKSTGFNERSSQLVSEFTTTEDIENCEETTQVLPPRLVVYELRLTNFKSYAGTQIVGPFHPSFSSIVGPNGSGKSNVIDALLFVFGFRASKLRQSKASALIHKSATHPSLDSCDVEITFKEVNSDFTYVDGSELTVRRTAYKNNTSKYFVNGVESSFSAVSNLLKEKGIDLNHKRFLILQGEVESIAQMKPRAISEGDDGLLEYLEDIIGTSKYKPIIEENMQELSNSDDICAEKESRLKLVLSEKAKLEDSKNSVLSFLKDENELFMKQNQLYRTILYETRNKKTLVQNLLNSLEGKLQAHLEKFEQTERDISEKNEEVKSLREKAAKVKNDCTSEKKTRQSYEQQTVKIEEQLKFLLNKEKKLKKSIEALSFEKSEAENSLSSHDIDSQKLNSEIADLSLRLQQEELSLDDIRKSLQGKTEGISNAIEEKQKAMAPALEKINQLTSEKQILQVELDMLLNKENDLINDVESSQSSLDKLRNDAEENRNILSSKLKVLSDLKGEKKDVSKNIERKKETVHNTYRNLMSNRTKLEEMKASLSSSRSRGNVLESLQRLHESDNLNGFFGRLGDLATIDEAYDVAISTACPALNHIVVDNIETGQKCVAFLRSNNLGRASFIILKELAQKNLARIQTPENVPRLFDLLRFNDQKFAPAFYNVLQNTLVAKNLEQANRIAYGKTRWRVVTLSGQLIDKSGTMTGGGTRVKKGGMSSAITSDVSPASVETCDKQVQLEDTRYRQHLSELESLNQRFTEISERIPSAELEISKLQLDVSACDRLVAGEERRILQLKSDLKSIRNNNERKRNLQNKISNMDKEVEAININNEGLVTEIKTLQDKIMEIGGIRYRIQKSKVDDLHEQLKFVKDKLNKMSFKKKKNEQRSQSFQVELSNLTSEYDTTTESIATLKTELQSLNKYVDEHKSRLREFENALWDINSSIDELVKFIEFESKQMNSVKAERIELENQIQEQRTALSEVGNNENKYLKLMSNLKLHNLTEFCDQTTMDSTFPEYSEDELSSVDKSELVSNISVLKKKTEDREVDINVLSEYRRCNKEAEKRDSDYQSELQKRTDLKKVVTDLQSQRLDEFMYGFGIISMKLKEMYQIITMGGNAELELVDSLDPFSEGVLFSVMPPKKSWKNISNLSGGEKTLSSLALVFALHNYKPTPLYVMDEIDAALDFKNVSIVANYIKERTKNAQFIVISLRSNMFELSSRLVGIYKTANMTKSVTINNKEILTD

Molecular target: T1, Cnd2-PK6 (condensin kleisin subunit Cnd2 with a PK6 tag) (S. pombe)
Assay: co-IP; Cnd2-PK6 precipitated with anti-V5 antibody and protein A Dynabeads from S. pombe lysates (zas1+ or zas1-Δaj3; 150 mM NaCl, 0.1% NP-40, DNase I); SDS-PAGE, silver staining

| Binder | binding |
| --- | --- |
| B1 | binds |
| B2 | binds |
